{
  "source": "patent US9084735B2",
  "about": "“Self-assembling bis-urea compounds for drug delivery” (International Business Machines Corporation, priority 2013, dated 2015)",
  "key": {"[1]": {"assay": "Critical micelle concentration of cationic compounds", "format": "physicochemical", "details": "in water"}, "[2]": {"assay": "Zeta potential of self-assembled cationic compounds in DI water (Zetasizer)", "format": "physicochemical", "details": "self-assembled fibers in DI water, 1000 mg/L, average of 5 measurements"}},
  "note": "For at least one compound, name, drawing or mass did not settle the structure.",
  "data": [
    {"smiles": "CC(=O)OCC(C)(COC(=O)OCCCCCNC(=O)Nc1ccc(CNC(=O)c2ccc(C(=O)NCc3ccc(NC(=O)NCCCCCOC(=O)OCC(C)(COC(C)=O)C(=O)OCCC[N+](C)(C)C)cc3)cc2)cc1)C(=O)OCCC[N+](C)(C)C", "note": "(centres unmarked) [Compound C-8]", "values": [
      {"measurement": "CMC", "setting": "[1]", "value": 75.0, "unit": "mg/L"},
      {"measurement": "Zeta Potential", "setting": "[2]", "value": 40.7, "unit": "mV"}
    ]}
  ]
}
